Measurements taken from article PMC2662408.
Results are given in words; binding and its absence hold for the method and conditions named. In cells and extracts the contact can be indirect. Some results given as binding are weak or reduced against the parent protein; the word gives no strength. For some of these results: Where a sequence is shown, tags or fusion partners need not be part of it. Blank lines part the entries; values can stand above or below the molecule they belong to.

The chains behind the UniProt entries cited, without tags or fusion partners. Where a name states a change or a piece, a line headed by the entry shows the natural chain unless it says otherwise.
UniProt P05205: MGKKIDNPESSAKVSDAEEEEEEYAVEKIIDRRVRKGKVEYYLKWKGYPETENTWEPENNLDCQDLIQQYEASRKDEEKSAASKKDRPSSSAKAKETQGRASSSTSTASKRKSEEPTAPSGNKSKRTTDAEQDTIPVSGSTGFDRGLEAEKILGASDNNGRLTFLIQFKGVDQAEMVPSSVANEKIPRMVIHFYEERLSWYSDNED
UniProt P45975: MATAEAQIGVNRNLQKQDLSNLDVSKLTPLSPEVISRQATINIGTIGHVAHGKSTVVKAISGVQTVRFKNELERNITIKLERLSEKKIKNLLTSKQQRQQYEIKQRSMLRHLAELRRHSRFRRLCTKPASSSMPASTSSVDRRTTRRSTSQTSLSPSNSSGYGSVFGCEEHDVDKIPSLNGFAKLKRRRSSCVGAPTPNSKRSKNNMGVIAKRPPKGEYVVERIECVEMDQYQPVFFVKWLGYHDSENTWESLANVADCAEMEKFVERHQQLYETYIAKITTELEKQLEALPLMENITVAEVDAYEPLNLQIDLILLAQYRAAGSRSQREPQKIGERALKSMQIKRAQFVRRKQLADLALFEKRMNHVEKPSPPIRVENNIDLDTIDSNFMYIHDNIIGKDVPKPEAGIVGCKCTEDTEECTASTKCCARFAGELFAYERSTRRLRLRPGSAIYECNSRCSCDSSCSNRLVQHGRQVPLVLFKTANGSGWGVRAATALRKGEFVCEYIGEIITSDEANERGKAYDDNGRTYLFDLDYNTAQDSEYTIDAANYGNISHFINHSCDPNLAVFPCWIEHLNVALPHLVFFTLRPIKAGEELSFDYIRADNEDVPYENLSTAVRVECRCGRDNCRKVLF

Legend:
GST-HP1c (Drosophila) = molecular target: T1, GST-HP1c (Drosophila) (UniProt Q9VCU6); test: pull-down; about 3 µg GST or HP1-GST fusion on glutathione sepharose beads; in vitro translated S^35-labeled prey, ethidium bromide 25 ng/µl; washed with CB200; autoradiography; only the target purified
T1 sequence: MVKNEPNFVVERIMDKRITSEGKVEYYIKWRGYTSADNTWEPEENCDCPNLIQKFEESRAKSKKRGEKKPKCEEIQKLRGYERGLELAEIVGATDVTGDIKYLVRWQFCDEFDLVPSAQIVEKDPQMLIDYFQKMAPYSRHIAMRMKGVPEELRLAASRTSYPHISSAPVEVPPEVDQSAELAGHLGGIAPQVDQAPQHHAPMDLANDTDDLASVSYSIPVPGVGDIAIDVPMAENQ

GST-HP1a (Drosophila) = GST-HP1a (Drosophila) (UniProt P05205); test: as above

binding (GST-HP1c (Drosophila)): no binding
binding (GST-HP1a (Drosophila)): binds
Molecule: in vitro translated Su(var)3–9 (from UniProt P45975 1-635)

binding (GST-HP1c (Drosophila)): no binding
binding (GST-HP1a (Drosophila)): binds
B1: in vitro translated ACF1 (protein, UniProt Q9V9T4 1-1476)
chain: MPICKREGFDLNQKEGKNETFHDNDQVFCCYITKRIFRDYEHYFRHVMVINSTVWQCEATGKENLTYEEAVKSERAARKKMEQFKQSLRAPVLLVVEHAQQSAVNTLNMIVAKFLRKRYFIGEEVSVQAKKNATYTVLGVKLDKNMPEPLNGIYEDTDNLVYRLRPNKGDPSAELDLPFRQLRRSRMEFNLENLSMFIKSNVSRVDGLLRPKPEAYKQYVTDPGVNFSTIFIGKMPRYSPAKIKKPDGKKQSTLNKYIVAGEATAAKSKAKAKSDAKSLAEELERVKREKEAKLIELEKQKAEKKAQLIERVENECNLLLQKTDDLERTDQKVLPRYRQIVTLLPEHLLGDAFMMREFMHTYTGLLSGIEVFRQNLSFYEMTRALTAREIAGPLSDILLVLLGTVFDLQKEEEEECAVTYLDRAAQTQEPYWSMAQAAKSHLYAKRHFSFKVNELPLDALTLSEVLRLHLLGSGAFVNEKAERWRVMYRNGYSSKEDPGLELRLEHSHILRILKNHSVYQLKFKDIMLLIRCLMSQIMTYSGTINLIEERMEQTAKARQDLRALVVGENKRLAAVEINRKKLTQMHHLEVNGVEPEKREALVEKLKKSIAELHAQSDQQHRKHELQMLKLHSQLFNFLVYLGMDRCYRKYYVLESMPGIFVEHSPDSLDTCLEQPITNKSQIEIRQQSALPKNRKDLRVYLLKLYGDDEKKTKKKAKHSLENKENQEHRLNGSAEPMDVESDSPEAPTHFELLMCSGDKRSCIVHDSRNGQRQRWAYIYKAEEIDELIKALNPNGLREYELLQELSVLRSLIEQHAKTCPVDLLSLENETMRKKFMAAMESETNRKYGEANFGLPNGTDLNEVMRLHLVDRIIQFENDIYTGDLGRLKVKDMEKWRSDLLGGNYDAQCKLQWGPGGKLEDEAGSDNESHETHEEDDGALLGKYARKPYRDPGMYLAASADTKPLPDSDDEEDQHTNAVSIPIAVHNMASALLQVEQAIGKRFLKEPYGMKKWDPKQEALKLACDSRLHQWEVSLMESTSFAQVFLHLNILHDCIQWRRSTNKSLCKVCRRGSDPEKMLLCDECNAGTHMFCLKPKLRSVPPGNWYCNDCVKSLGLSNGQNEKDKKQATKKKRKFIVEEEDDEATDEEEEEKKDDDMTDEDAEHENEKHDEDVEDDESVTSTPSSSRVNGRILRRPRTRPTSRRLTSKEIEEHAQEDVDSGDVSDDASLTAGEDTIEDESDEEKVCQKCFYDGGEIKCVQCRLFFHLECVHLKRPPRTDFVCKTCKPMPQRPRRRHSNMNGDHDRDEEEPKAKRPRNSLRLSIDKTARPSNGNNNNNNNNSSVNNNNHRRSGRRTNEHMPLNSAALYDLLEQIMKHKAAWPFLRPVLTSEVPDYHQIIKTPMDLAKIKSKLNMGAYQLNEELLSDIQLVFRNCDLYNVEGNEIYDAGCQLERFVIDRCRDMQLPFRPSDMNGEVKAC
